Results are given in words; binding and its absence hold for the method and conditions named. In cells and extracts the contact can be indirect.
Molecular target: HA-tagged GATA1 (doxycycline-inducible, in CMK cells) (UniProt P15976)
Test: co-IP

Amino acid sequences for entries named in this document (tags omitted). A change or cut given only in a name is not applied to a line headed by its entry.
UniProt P15976, whole entry, stated change not applied: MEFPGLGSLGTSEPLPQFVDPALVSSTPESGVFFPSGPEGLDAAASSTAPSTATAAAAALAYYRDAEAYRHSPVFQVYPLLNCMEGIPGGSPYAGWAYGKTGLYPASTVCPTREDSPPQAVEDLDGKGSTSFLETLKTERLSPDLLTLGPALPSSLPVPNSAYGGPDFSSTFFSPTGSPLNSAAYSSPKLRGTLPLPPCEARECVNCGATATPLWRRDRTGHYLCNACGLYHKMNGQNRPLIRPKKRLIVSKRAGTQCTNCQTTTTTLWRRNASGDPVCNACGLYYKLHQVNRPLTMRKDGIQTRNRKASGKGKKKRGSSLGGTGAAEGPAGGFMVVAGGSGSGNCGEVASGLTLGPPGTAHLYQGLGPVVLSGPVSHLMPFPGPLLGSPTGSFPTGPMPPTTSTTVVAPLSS

Q: With “RUNX1A (in CMK cells, tested with HA-GATA1/GATA1s) (from UniProt Q01196-2)” as the substance, how does the binding read?
A: Its binding is “no binding”.

Reference: article doi:10.1101/2022.03.07.483334
